The list shows a part of the results, in another mix than the full data. Active and inactive are the calls of the source. No rule for the calls is given here.
System: Aerobactin synthetase IucA (Klebsiella pneumoniae, hypervirulent)
Test: IucA enzyme inhibition, biochemical, LOPAC library, absorbance readout (AID 1346212);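 also: 100% = no compound wells and 0% = no enzyme wells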
Details: IucA enzyme assay, absorbance (OD) readout; stronger effect = lower value;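 tested at 8 µM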

Question: With `CN1C2CCC1CC(OC(=O)C(O)c1ccccc1)C2` (stereo unspecified) as the compound, how does the remaining activity read?
Answer: inactive: 94.1%
